In article PMC11990662, “Synthesis and Evaluation of the Antiproliferative Activity of the Derivatives of 3,5-Diaryl-3,4-dihydro-2H-pyrrole-2-carboxylic Acids” (Molecules, 2025):

Experiments:
[1] = test system: H1299 (non-small-cell lung carcinoma cells); assay: MTT antiproliferative assay, H1299; type: cell-based, human
Experimental: (§1) Antiproliferative activity of some compounds was evaluated on cell cultures derived from MDA-MB-231 (triple negative human breast carcinoma). […] This finding allowed us to further investigate the antiproliferative activity of selected compounds on additional tumor cell lines. We studied the influence of the stereochemical orientation of the substituents at C2 and C3 in substituted 3,4-dihydro-2H-pyrrole-2-carbonitriles. The antiproliferative activity of single diastereomers of some nitriles 4 and the amide cis-6m were assessed on multiple human cancer cell lines via the MTT assay. For these experiments, the following human cell lines were used: MCF-7 (luminal type A breast carcinoma), MD-MBA-231, H1299 (non-small-cell lung carcinoma cells), A549 (lung alveolar adenocarcinoma), HeLa (cervical cancer), HepG2 (hepatocellular carcinoma), HT-29 (colorectal adenocarcinoma) and PC3 (prostate adenocarcinoma). As a model of normal tissue, we used MCF-10A (non-tumorigenic epithelial cells of mammary gland). Table 5 and Table 6 present the values of concentration that inhibits cell viability to 50% (IC50) and selectivity index (SI = IC50(MCF-10A)/IC50(tumor cell line)).
(§2) The antiproliferative activity testing was performed on cell cultures from several human cancer cell lines the MTT-dye reduction assay, described by Mosmann. Cell lines were obtained from the American Type Cultures Collection (ATCC, Manassas, VA, USA). In this article we used the following cell lines: MCF-10A (ATCC, CRL-10317™) Non-tumorigenic epithelial cells of mammary gland, MCF-7 (ATCC, HTB-22™) Luminal type A breast carcinoma, MDA-MB-231 (ATCC, HTB-26™) Triple negative breast carcinoma, H1299 (ATCC, CRL-5803™) Non-small-cell lung carcinoma, A549 (ATCC, CRM-CCL-185™) Llung alveolar adenocarcinoma, HeLa (ATCC, CCL-2™) Cervical cancer, Hep G2 (ATCC, HB-8065™) Hepatocellular carcinoma, HT-29 (ATCC, HTB-38™) Colorectal adenocarcinoma, PC-3 (ATCC, CRL-1435™) Prostate adenocarcinoma. The cells were cultured in a cell culture laboratory at the Institute of Experimental Morphology, Pathology and Anthropology with a Museum—Bulgarian Academy of Sciences. They were cultured in Dulbecco’s Modified Eagle’s medium, high glucose (DMEM 4.5 g/L glucose), supplied with 10% fetal bovine serum and antibiotics in usual concentrations in a humidified atmosphere with 5% CO2 at 37.5 °C. In the case of MCF-10A cells, epidermal growth factor, insulin and cholera toxin were added in concentrations corresponding to the cell bank instructions. Cells were plated at a density of 1 × 10^3 cells per well in a 96-well flat-bottomed microplates and allowed to adhere for 24 h before treatment with the test compounds, dissolved in DMSO, and further diluted in culture medium to the final concentrations. A concentration ranges from 5 µM to 4.1 mM was tested over an incubation period of 72 h. Cisplatin (Sigma-Aldrich) was used as a positive control in a concentration range 50 nM to 100 µM. All experiments were performed in triplicates. The MTT-formazan absorption was measured using a microplate reader (TECAN, Sunrise^TM, Groedig/Salzburg, Austria) at 570 nm. Antiproliferative activities were expressed as IC50 values (concentrations required for 50% inhibition of cell growth), calculated using non-linear regression analysis (GraphPad Prizm8 Software). The statistical analysis involved One-way ANOVA followed by Bonferroni’s post hoc test p < 0.05 was accepted as the lowest level of statistical significance.

HeLa (cervical cancer) = assay: MTT antiproliferative assay, HeLa; type: cell-based, human
Experimental: as §1, §2

[2] = test system: MCF-7 (luminal type A breast carcinoma); assay: MTT antiproliferative assay, MCF-7; type: cell-based, human
Experimental: as §1, §2

[3] = test system: PC3 (prostate adenocarcinoma); assay: MTT antiproliferative assay, PC3; type: cell-based, human
Experimental: as §1, §2

[4] = test system: MDA-MB-231 (triple negative human breast carcinoma); assay: MTT antiproliferative assay, MDA-MB-231; type: cell-based
Experimental: as §1, §2

[5] = test system: HepG2 (hepatocellular carcinoma); assay: MTT antiproliferative assay, HepG2; type: cell-based, human
Experimental: as §1, §2

[6] = test system: MCF-10A (non-tumorigenic epithelial cells of mammary gland); assay: MTT antiproliferative assay, MCF-10A; type: cell-based, human; conditions: MCF-10A (reference line)
Experimental: as §1, §2

[7] = test system: A549 (lung alveolar adenocarcinoma); assay: MTT antiproliferative assay, A549; type: cell-based, human
Experimental: as §1, §2

[8] = test system: HT-29 (colorectal adenocarcinoma); assay: MTT antiproliferative assay, HT-29; type: cell-based, human
Experimental: as §1, §2

Row | Structure (SMILES) | SI = IC50(MCF-10A)/IC50(tumor cell line) [1] | SI = IC50(MCF-10A)/IC50(tumor cell line) (HeLa (cervical cancer)) | SI = IC50(MCF-10A)/IC50(tumor cell line) [2] | SI = IC50(MCF-10A)/IC50(tumor cell line) [3] | SI = IC50(MCF-10A)/IC50(tumor cell line) [4] | SI = IC50(MCF-10A)/IC50(tumor cell line) [5] | SI = IC50(MCF-10A)/IC50(tumor cell line) [6] | SI = IC50(MCF-10A)/IC50(tumor cell line) [7] | SI times higher than SI of Cisplatin [7] [times] | SI = IC50(MCF-10A)/IC50(tumor cell line) [8] | SI times higher than SI of Cisplatin [8] [times]
1 | Cc1ccc(C2=N[C@@H](C#N)[C@H](c3ccccc3)C2)cc1 (relative stereo) [trans-4k, rel-(2R,3S)-5-(4-methylphenyl)-3-phenyl-3,4-dihydro-2H-pyrrole-2-carbonitrile] | 0.51 | 2.16 | 0.32 | 1.50 | 0.58 | 1.14 | 1 | 15.5 | 26 | 1.33 | –
2 | N.N.[Cl][Pt][Cl] [Cisplatin, reference compound] | 4.62 | 1.18 | 0.50 | 6.93 | 12.7 | 1.22 | 1 | 0.60 | – | 2.84 | –
3 | Cc1ccc(C2=N[C@@H](C#N)[C@@H](c3ccccc3)C2)cc1 (racemic) [cis-4k] | 0.51 | 0.61 | 0.28 | 0.35 | 0.04 | 0.44 | 1 | 1.27 | – | 0.12 | –
4 | N#C[C@@H]1N=C(c2ccccc2)C[C@@H]1c1cccnc1 (racemic) [cis-4h] | 0.76 | 1.03 | 1.65 | 1.19 | < 0.55 | 0.76 | 1 | 7.33 | – | 1.39 | –
5 | COc1ccc(C2=N[C@@H](C#N)[C@@H](c3ccccc3)C2)cc1 (racemic) [cis-4e] | 0.51 | 2.69 | 0.24 | – | < 0.12 | 0.77 | 1 | 1.25 | – | 1.39 | –
6 | COc1cc(O)c(C2=N[C@@H](C#N)[C@H](c3ccc(C)c(F)c3)C2)c(OC)c1 (relative stereo) [cis-4m, rel-(2R,3S)-3-(3-fluoro-4-methylphenyl)-5-(2-hydroxy-4,6-dimethoxyphenyl)-3,4-dihydro-2H-pyrrole-2-carbonitrile] | 6.68 | 0.75 | 0.92 | 1.47 | 10.5 | 1.45 | – | 1.74 | – | 8.66 | 3
7 | COc1cc(O)c(C2=N[C@@H](C#N)[C@H](c3ccc(C)c(F)c3)C2)c(OC)c1 (racemic) [trans-4m] | 2.18 | 0.07 | 0.53 | 1.79 | 0.11 | 1.78 | 1 | 2.46 | – | 2.82 | –
8 | COc1cc(O)c(C2=N[C@@H](C(N)=O)[C@@H](c3ccc(C)c(F)c3)C2)c(OC)c1 [cis-6m] | 0.23 | 0.36 | 0.46 | 3.44 | 0.22 | 3.67 | 1 | 3.16 | – | 6.67 | –
